# Laboratory results from PubChem BioAssay AID1259415 (National Center for Advancing Translational Sciences (NCATS), 2018).
# Hit rate of the full screen: of about 410,000 compounds, about 18,000 (4.4%) were called active. The inconclusive results got no clear call from the source; some entries with a clear call stand among them for comparison. No stated cut-off is given here; in the data, active means activity change below about -60%; inconclusive means no clear call, values can overlap the other calls; inactive means above about -39%.
# Assay: qHTS Assay for inhibitors of the human cytomegalovirus (HCMV)
# Conditions: HFF cells, HCMV-luciferase reporter, 72 h; at 57.5 µM; hits give low values
# Method in brief: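 Luciferase read-out from HCMV-luciferase-infected HFFs (MOI 1 PFU/cell) 72 h post infection at 37C; compounds added after 16 h cell attachment; activity normalized between buffer-only basal and Salinomycin (10uM) inhibitor controls.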
# On the % scale 0 is the no-effect control and ±100 the full control effect.
row,Compound,"activity change, negative = inhibition"
1,COc1ccccc1NC1=NC(c2ccc(Cl)cc2)N=C(N)N1 (stereo not drawn),active: -75.4%
2,C=CCc1cc(C=Nc2ccc(N3CCOCC3)cc2)cc(OCC)c1O,inconclusive: -41.2%
3,CCSC1=NCCN1S(=O)(=O)c1ccc(F)cc1,inconclusive: -54.7%
4,Cc1c(OC(C)C(=O)NCCCN2CCCC2=O)ccc2c3c(c(=O)oc12)CCCC3 (stereo not drawn),inconclusive: -47%
5,COC(=O)c1c(C)nsc1NC(=O)Oc1ccccc1,inconclusive: -49.6%
6,Cc1nn(C)c(C)c1NS(=O)(=O)c1ccc(OC(F)(F)F)cc1,inconclusive: -49.3%
7,O=C(CN1CCSCC1)N/N=C/c1cccc(Cl)c1,inconclusive: -50.1%
8,O=C(NCCN1CCOCC1)C(=O)NCc1ccc2c(c1)OCO2,inactive: 3.35%
9,O=C(COC(=O)c1n[nH]c2ccccc12)Nc1ccc(S(=O)(=O)N2CCCC2)cc1,inconclusive: -49.3%
10,COc1ccc(-n2c(=O)c3ccccc3n(Cc3ccccc3C)c2=O)c(OC)c1,inconclusive: -44.8%
11,Clc1ccc(CN2CCN(c3ncccn3)CC2)cc1Cl,inactive: -33.2%
12,CCc1nc(N=C(N)N)nc2ccccc12,active: -82%
13,CC(C)(C)OC(=O)N1CCc2onc(-c3ccc(N)cc3)c2C1=O,inactive: 17.3%
14,COc1cc(NC(=S)NC(=O)CC(C)C)ccc1NC(=O)c1cc2ccccc2o1,inconclusive: -43.4%
15,CCOC(=O)Nc1ccc(S(=O)(=O)NCc2ccccc2)cc1,active: -61.7%
16,Cc1ccc(C)c(N(C)C(=O)c2ccc3c(=O)n4c(nc3c2)CCCCC4)c1,inconclusive: -41.2%
17,C/C(=N\Nc1nc(C)cc(-c2ccccc2)n1)c1ccc(C)o1,active: -63.3%
18,CC1CCC(NC(=O)CSc2nncs2)CC1 (stereo not drawn),inactive: -15%
19,CC1CCc2c(C(=O)OCC(=O)Nc3cccc(S(=O)(=O)N4CCCCCC4)c3)csc2C1 (stereo not drawn),inconclusive: -53.2%
20,CCn1nc(C)cc1C(=O)NC1CCCc2c1cnn2-c1ccc(C)c(C)c1 (stereo not drawn),active: -85.9%
21,COc1ccc(C(=O)N2CCC(c3nc(-c4ccc(S(=O)(=O)N5CCCC5)cc4)no3)CC2)cc1,active: -81.2%
22,CSc1ccc(CNC(=O)CCn2c(=O)c3cccn3c3ccc(F)cc32)cc1,inconclusive: -43.4%

# Looked up one by one from the entries so far, 3 records:
row,Compound,"activity change, negative = inhibition"
8,O=C(NCCN1CCOCC1)C(=O)NCc1ccc2c(c1)OCO2,inactive: 3.35%
16,Cc1ccc(C)c(N(C)C(=O)c2ccc3c(=O)n4c(nc3c2)CCCCC4)c1,inconclusive: -41.2%
22,CSc1ccc(CNC(=O)CCn2c(=O)c3cccn3c3ccc(F)cc32)cc1,inconclusive: -43.4%

# Following part.

row,Compound,"activity change, negative = inhibition"
1,CC(=O)N1c2ccc(S(=O)(=O)N3CCC(C(=O)Nc4cccc(C)n4)CC3)cc2CC1C (stereo not drawn),active: -86.7%
2,Cc1ccc(C2(O)CN(c3ccccc3C)C3=[N+]2CCS3)cc1 (stereo not drawn),inconclusive: -42.1%
3,Cc1ccc(S(=O)(=O)NCC(=O)NCC(=O)NC(C)c2ccccc2Br)cc1C (stereo not drawn),inconclusive: -56.1%
4,Cc1ccccc1C(=O)Nc1ccc2c(c1)CCCN2C(=O)c1cccs1,active: -71.1%
5,COc1ccc(OC)c(/C=N/NC(=O)CNC(=O)c2ccc(S(=O)(=O)N3CCOCC3)cc2)c1,inconclusive: -44.2%
6,O=c1c2ccccc2n(Cc2ccccc2F)c(=O)n1-c1cccc(F)c1,inconclusive: -43.2%
7,COc1ccccc1CNC(=O)c1cnc2sc(N3CCCCCC3)nn2c1=O,inconclusive: -47.1%
8,Cc1cccc(NC(=O)C2CCN(S(=O)(=O)c3c(C)nn(C)c3C)CC2)n1,inconclusive: -60%
9,COC(=O)CCCC1=CC2=C(c3ccccc3)C(=O)C(C)(OC(=O)C3CCCC3)C(=O)C2=CN1C1CC1 (stereo not drawn),active: -61.1%
10,O=C(COc1ccc(Br)cc1)NCCCn1ccnc1,inconclusive: -56.2%
11,CC1Cc2cc(S(=O)(=O)CCC(=O)Nc3ccc(F)c(Cl)c3)ccc2N1C(=O)C1CC1 (stereo not drawn),inconclusive: -40.8%
12,COc1ccccc1-c1cc(C(F)(F)F)nc(S(C)(=O)=O)n1,active: -104%
13,CC(C)(C)c1ccc(S(=O)(=O)N2CCN(C(=O)C3CCC3)CC2)cc1,inactive: -20.3%
14,O=c1c2ccccc2nc(-c2ccc(F)cc2)n1NCc1ccccc1O,inactive: -6.02%
15,COc1ccc(-c2[nH]ncc2-c2csc(C)n2)c(O)c1,inconclusive: -47.4%
16,Cc1cc(C(=O)OCC(=O)NCc2ccc(Cl)cc2)c(C)o1,inconclusive: -47.1%
17,C=C(C)CNC(=S)NNC(=O)c1ccncc1,inconclusive: -41.5%
18,O=C(CN1CCCCC1)Nc1ccccc1Oc1ccccc1,inconclusive: -56.2%
19,CN1CCN(C(=O)CCn2c(=S)[nH]c3ccccc3c2=O)CC1,inconclusive: -42.3%
20,CNc1nc(N/N=C/c2cc([N+](=O)[O-])ccc2F)nc(Nc2ccccc2)n1,inconclusive: -40.8%
21,O=c1/c(=C/c2ccc(O)c([N+](=O)[O-])c2)sc2nc3ccccc3n12,inconclusive: -58%
